## Primary screen of a compound library

A: 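Growth of Mycobacterium tuberculosis over 4 days (cholesterol / DPPC medium with tyloxapol); the read-out is not stated. Compounds at 50 µM. Direction is inferred from retests: higher values go with more growth inhibition. Of about 69,000 compounds tested this way, about 370 (0.54%) reached 50% or more in at least one test.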
B: 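Growth of Mycobacterium tuberculosis over 3 days (7H9 medium with glucose and tyloxapol); the read-out is not stated. Tested at 50 µM. Direction is inferred from retests: higher values go with more growth inhibition. Size under these conditions: about 69,000 compounds, about 760 of them at 50% or above in at least one test.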

Results are given as percent effect.
The controls that fix the scale are not given in the record; negative values are as filed.
This is an unselected part of the compounds tested.
Two or more numbers in one place are separate tests of the same structure; such repeats can differ widely.

| Compound | A | B |
|---|---|---|
| `Cc1nccn1-c1cc(CNS(=O)(=O)N2CCCC(C)C2)ccn1` (stereo unspecified) | -8.152 | -35.57 |
| `CCc1c(C)sc(NC(=O)CN2CCOCC2)c1C(=O)OC` | 15.87 | 35.31 |
| `CN1CCCCC1CCC(=O)NCCCn1ncc2ccccc21` (stereo unspecified) | -12.13 | -1.831 |
| `FC(F)(F)c1ccc2nc([C@H]3CCN(C4CCOCC4)C3)[nH]c2c1` | 19.74 | 10.14 & 7.513 |
| `COc1ccc(C2=Nn3c(CCCN)nnc3-c3ccccc3C2)cc1` | -14.29 | -0.5535 |
| `c1ccc(NCc2cnc3n2CCN(C2CCOC2)CC3)nc1` (stereo unspecified) | -44.25 | 5.51 |
| `CCn1nc(C)c(CCNC(=O)C2CCCN(CC(N)=O)C2)c1C` (stereo unspecified) | -17.54 | -38.86 |
| `O=C(O)Cc1cn2cc(C(F)(F)F)ccc2n1` | -16.14 | 6.027 & -7.825 |
| `Cn1nc2c(cc1=O)CN(CC(=O)Nc1nncs1)CC2` | -15.34 | -10.84 |
| `O=C(O)C(F)(F)F.[H][C@]12CC[C@@]3(N=C(C)N(CC(C)C)C3=O)[C@@]1([H])CNC2` | -35.39 | -11.06 |
| `O=C(CN1CCc2cncnc2C1)N1CCc2sccc2C1` | -8.799 & -9.218 | -13.48 |
| `Cc1cnn(CCC(=O)N2CCN(c3ccc(C#N)cn3)CC2)c1` | 2.242 | 1.374 |
| `Cc1ccc(N2CC3(COCCN(Cc4ccccn4)C3)OCC2=O)s1.O=C(O)C(F)(F)F.O=C(O)C(F)(F)F` (stereo unspecified) | -5.216 & -16.13 | -10.02 & -14.09 |
| `CN(C)c1ccc(C(=O)Nc2cnn(Cc3ccccn3)c2)cc1` | 15.18 | 7.95 & 12.97 |
| `CN(C)C1Cc2ccccc2N(S(=O)(=O)c2ccccc2C#N)C1` (stereo unspecified) | 0.00542 & -3.201 | -49.62 |
| `CN(C(=O)c1ccn(C)n1)[C@@H]1CCC[C@@H](Oc2ccccc2)[C@@H]1O` | -6.523 | -3.056 |
| `CC(C)C(=O)N1CCN(c2cc(N(C)C)cnn2)CC1` | 11.65 | 2.981 & 19.29 |
| `CC(C)CN(C)c1ccc(C(=O)N2CCCC2c2cnn(C)c2)cn1` (stereo unspecified) | -22.66 | 16.77 |
| `CC(CN1CCOCC1)NC(=O)NCc1ccoc1` (stereo unspecified) | 4.312 & -2.829 | 29.28 |
| `Cc1cc(Br)oc1C(=O)N1CCC(N(C)C)CC1` | -8.02 & -10.2 | -46.95 |
| `COCc1nc2cc(NCc3ncc[nH]3)ccc2o1` | 10.46 | -7.704 & 0.7259 |
| `COc1cc(Cl)ccc1C(=O)NCc1n[nH]c(C)n1` | -7.28 | 12.51 |
| `CCS(=O)(=O)NC1CCCN(Cc2ccn(C)c(=O)c2)C1` (stereo unspecified) | -31.74 | -23.75 |
| `C/N=C1\c2cc3cc(OC)ccc3n2CCN1C.Cl` | 14.56 | 31.24 |
| `COC(=O)CN(C(=O)c1ccc(-n2ccnc2)cc1)C1CCCC1` | -34.3 | -18.34 |
| `CC(NC(=O)NCCCN1CCCCCC1=O)c1nncn1C` (stereo unspecified) | -8.322 | -37.9 & -3.228 |
| `CCOc1c(CNC2CSCCSC2)cccc1OC` | -16.18 | -2.409 & -32.49 |
| `O=C(NC1CCC1)c1c2c(N3CCCC3)ncnc2n2ccccc12` | 6.803 | -24.06 |
| `CCOC(=O)N1CCN(CC(=O)Nc2nnc(CC)s2)CC1` | -3.824 & 3.159 | -2.294 |
| `CN1CCCN(c2ccc(F)cc2CNC(=O)c2ccsc2)CC1` | 3.949 | 5.812 |
| `CN(C)c1ccc(C(=O)N2CCN(Cc3cscn3)CC2)cc1F` | 7.201 | 8.954 |
| `CCN(CC)C(=O)c1nnsc1-c1ccc(C)cc1` | -10.15 | -5.074 & 2.038 |
| `Cc1cccc(N2CCCC2c2nc(C)ncc2CN(C)C)n1` (stereo unspecified) | -9.206 | 14.6 |
| `Cc1cccc(N2CCC(NCc3cnc(C4CCC4)s3)CC2)n1` | -15.14 | 7.545 & -15.55 |
| `CCOc1ccnc(N2CCCN(c3nc(C4CC4)ns3)CC2)n1` | -8.262 | 21.09 |
| `[H][C@@]12CS(=O)(=O)C[C@]1([H])N(C(=O)CCn1cc(C)cn1)CCN2C(=O)C(C)C` | 8.48 | 6.128 |
| `O=C(O)C(F)(F)F.[H][C@@]12COC[C@]1(c1nnc(C)o1)CN(S(=O)(=O)c1cccnc1)C2` | -9.703 | 23.69 |
| `FC(F)(F)c1cccc(N2CCC(NCc3cccnc3)CC2)c1` | 7.49 | 40.37 |
| `Cc1cc(C(=O)NC2CCN(c3ncccc3C#N)CC2)on1` | 6.121 | -0.7019 & 4.173 |
| `O=c1[nH]c2ccccc2cc1CNCCCN1CCOCC1` | -6.187 | -3.772 |
| `CC(=O)N(c1ccc(C)cc1)c1nc(CN2CCCC(C)C2)cs1` (stereo unspecified) | 1.374 | 33.14 |
| `CN1CCC(C(=O)NCc2nncn2-c2ccccc2)CC1=O` (stereo unspecified) | -1.356 | 3.555 |
| `COc1cncc(-n2nc(C)c(CC(C)=O)c2C)c1` | -0.4887 | 23.84 |

5 of the entries, repeated:

Compound	A	B
FC(F)(F)c1cccc(N2CCC(NCc3cccnc3)CC2)c1	7.49	40.37
CC(C)C(=O)N1CCN(c2cc(N(C)C)cnn2)CC1	11.65	2.981 & 19.29
CC(NC(=O)NCCCN1CCCCCC1=O)c1nncn1C (stereo unspecified)	-8.322	-37.9 & -3.228
FC(F)(F)c1ccc2nc([C@H]3CCN(C4CCOCC4)C3)[nH]c2c1	19.74	10.14 & 7.513
CCc1c(C)sc(NC(=O)CN2CCOCC2)c1C(=O)OC	15.87	35.31

Source: ChEMBL document CHEMBL3988442, “University of Dundee, Small-Polar-MMV Screening Library” (2021).